Library screen at single concentrations

Chains of the proteins cited; added tags and fusions are not shown.
UniProt P9WFT3, whole entry: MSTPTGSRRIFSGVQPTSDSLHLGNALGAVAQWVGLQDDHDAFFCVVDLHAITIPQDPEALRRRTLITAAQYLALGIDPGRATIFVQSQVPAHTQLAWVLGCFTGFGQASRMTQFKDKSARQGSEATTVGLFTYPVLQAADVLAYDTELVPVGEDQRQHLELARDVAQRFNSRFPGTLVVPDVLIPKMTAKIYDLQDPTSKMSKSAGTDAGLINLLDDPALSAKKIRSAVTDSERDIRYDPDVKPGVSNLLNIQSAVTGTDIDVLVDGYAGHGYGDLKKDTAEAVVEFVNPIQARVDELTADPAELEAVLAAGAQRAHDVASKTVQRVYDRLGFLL
UniProt I6X8D2, whole entry: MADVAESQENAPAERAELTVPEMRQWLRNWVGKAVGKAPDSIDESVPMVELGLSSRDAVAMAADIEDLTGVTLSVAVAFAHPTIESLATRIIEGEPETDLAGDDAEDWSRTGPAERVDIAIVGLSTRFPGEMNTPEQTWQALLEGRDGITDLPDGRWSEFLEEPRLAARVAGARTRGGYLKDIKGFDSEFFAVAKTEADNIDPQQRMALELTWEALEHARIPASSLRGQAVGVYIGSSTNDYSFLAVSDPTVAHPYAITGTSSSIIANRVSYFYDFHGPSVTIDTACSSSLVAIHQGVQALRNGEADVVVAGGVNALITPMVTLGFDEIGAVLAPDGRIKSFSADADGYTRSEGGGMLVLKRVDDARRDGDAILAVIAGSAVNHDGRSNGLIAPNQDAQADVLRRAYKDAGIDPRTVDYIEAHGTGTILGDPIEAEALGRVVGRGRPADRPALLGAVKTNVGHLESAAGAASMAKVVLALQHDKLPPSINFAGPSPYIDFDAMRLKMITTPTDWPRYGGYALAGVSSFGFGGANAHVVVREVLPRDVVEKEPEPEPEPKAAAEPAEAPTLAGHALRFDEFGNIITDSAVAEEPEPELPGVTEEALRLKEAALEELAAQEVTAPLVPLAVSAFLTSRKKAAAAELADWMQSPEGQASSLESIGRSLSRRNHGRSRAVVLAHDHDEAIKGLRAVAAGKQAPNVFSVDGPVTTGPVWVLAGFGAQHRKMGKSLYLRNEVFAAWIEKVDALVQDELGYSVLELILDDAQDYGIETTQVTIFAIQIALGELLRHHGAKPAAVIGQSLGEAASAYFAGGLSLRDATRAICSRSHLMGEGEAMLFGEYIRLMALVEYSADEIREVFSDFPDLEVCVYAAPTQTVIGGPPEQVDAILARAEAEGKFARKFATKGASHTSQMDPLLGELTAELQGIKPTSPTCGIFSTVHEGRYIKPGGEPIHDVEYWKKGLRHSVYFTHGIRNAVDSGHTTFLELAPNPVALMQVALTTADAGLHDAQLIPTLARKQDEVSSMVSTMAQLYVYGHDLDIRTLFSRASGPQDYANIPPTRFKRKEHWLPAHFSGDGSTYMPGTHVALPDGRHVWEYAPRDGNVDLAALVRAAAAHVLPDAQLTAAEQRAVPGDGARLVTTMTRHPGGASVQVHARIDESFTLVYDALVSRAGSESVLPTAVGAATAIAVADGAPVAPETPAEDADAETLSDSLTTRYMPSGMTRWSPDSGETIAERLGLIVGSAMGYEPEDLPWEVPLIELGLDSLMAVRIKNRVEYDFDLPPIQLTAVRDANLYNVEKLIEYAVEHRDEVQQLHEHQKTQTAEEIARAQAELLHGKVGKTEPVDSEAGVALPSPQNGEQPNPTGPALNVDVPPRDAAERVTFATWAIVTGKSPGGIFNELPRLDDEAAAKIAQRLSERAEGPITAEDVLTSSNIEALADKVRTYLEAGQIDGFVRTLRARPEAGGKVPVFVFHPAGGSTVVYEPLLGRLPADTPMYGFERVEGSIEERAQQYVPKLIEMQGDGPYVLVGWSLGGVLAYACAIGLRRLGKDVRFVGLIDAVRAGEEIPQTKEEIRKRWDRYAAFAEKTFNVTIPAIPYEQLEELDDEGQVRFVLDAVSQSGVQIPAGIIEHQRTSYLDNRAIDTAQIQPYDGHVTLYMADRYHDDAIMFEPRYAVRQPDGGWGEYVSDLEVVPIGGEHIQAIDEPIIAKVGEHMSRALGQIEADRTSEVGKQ
UniProt P9WNZ1, whole entry: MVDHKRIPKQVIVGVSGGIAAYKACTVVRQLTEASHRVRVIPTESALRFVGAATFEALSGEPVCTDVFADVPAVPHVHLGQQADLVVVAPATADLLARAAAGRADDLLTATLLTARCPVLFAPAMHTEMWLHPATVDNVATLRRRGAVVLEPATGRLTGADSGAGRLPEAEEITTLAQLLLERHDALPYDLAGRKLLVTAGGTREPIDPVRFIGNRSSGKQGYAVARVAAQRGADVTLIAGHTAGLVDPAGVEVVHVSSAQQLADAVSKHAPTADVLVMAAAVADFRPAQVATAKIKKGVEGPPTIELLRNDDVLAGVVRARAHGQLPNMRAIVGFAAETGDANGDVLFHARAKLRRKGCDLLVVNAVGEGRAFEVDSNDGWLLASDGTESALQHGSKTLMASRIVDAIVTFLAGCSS

Data taken from ChEMBL document CHEMBL3988442, “University of Dundee, Small-Polar-MMV Screening Library” (2021).

MtTrpRS: 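Enzyme assay of tryptophanyl-tRNA synthetase; the read-out is not stated. Target: Tryptophan-tRNA ligase, Mycobacterium tuberculosis (UniProt P9WFT3). Tested at 10 µM. Direction is not recorded; retested compounds ran higher, which suggests that high means inhibition. Of about 65,000 compounds tested this way, about 64 (0.098%) reached 50% or more in at least one test.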
Pks13 thioesterase: 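Polyketide synthase Pks13, Mycobacterium tuberculosis (UniProt I6X8D2). Enzyme assay of the thioesterase domain of polyketide synthase 13; the read-out is not stated. Compounds at 30 µM. The record gives no direction; the compounds picked for IC50 retests had high values, so higher reads as stronger inhibition. About 67,000 compounds were tested under these conditions; 0.46% (about 300) showed 50% or more at least once.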
CoaBC: 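Enzyme assay of CoaBC with a phosphate dye (Biomol Green) read at 650 nm. Target: Coenzyme A biosynthesis protein CoaBC, Mycobacterium tuberculosis (UniProt P9WNZ1). Tested at 30 µM. Direction is inferred from only a few compounds that gave an IC50; most scored high, so higher reads as stronger inhibition. Most strong results did not repeat in a second test. Of about 67,000 compounds tested this way, about 40 (0.06%) reached 50% or more in at least one test.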

Results are given as percent effect.
How 0% and 100% were set is not recorded. Most values in the screen are low, and negative values occur.
This is an unselected part of the compounds tested.

* Cc1cc(C)n(CC(C)Nc2nc(-c3ccncc3)nc3c2CNC3)n1 (configuration not stated) : MtTrpRS: 2.196%; Pks13 thioesterase: 6.705%; CoaBC: 5.383%
* CCC(=O)Nc1ccc2c(c1)CN(C(=O)c1ccco1)CC2 : MtTrpRS: -0.7718%; Pks13 thioesterase: -5.063%; CoaBC: -4.689%
* O=c1nc(SCc2ccc(Cl)cc2)c2c(n1CCO)CCC2 : MtTrpRS: 0.9382%; Pks13 thioesterase: 9.024%; CoaBC: 0.3745%
* CCCN(C(=O)CCS(=O)(=O)Cc1ccccc1)c1cccc(C)c1 : MtTrpRS: 2.478%; Pks13 thioesterase: -83.11%; CoaBC: 0%
* O=C(CS(=O)(=O)c1ccccc1Cl)NC1CCCCNC1=O (configuration not stated) : MtTrpRS: 3.277%; Pks13 thioesterase: -9.802%; CoaBC: 8.193%
* CS(=O)(=O)N1CCCCC12CCN(c1nncs1)CC2 : MtTrpRS: -2.885%; Pks13 thioesterase: -26.13%; CoaBC: 5.499%
* NC(=O)CNC(=O)c1ccc(CNCc2ccc(Cl)cc2Cl)cc1 : MtTrpRS: 1.891%; Pks13 thioesterase: -29.88%; CoaBC: 3.03%
* Cn1nc(C2CCNC2)c2c(C(=O)NCC(F)(F)F)cc(C3CC3)nc21 (configuration not stated) : MtTrpRS: -5.964%; Pks13 thioesterase: -7.699%; CoaBC: -1.053%
* COc1ccc(Cc2cccc(C3CCN(C)CC3)n2)cc1 : MtTrpRS: -5.1%; Pks13 thioesterase: -46.45%; CoaBC: 0%
* CN(C)C(=O)CS(=O)(=O)Cc1ccn(-c2cccc(F)c2)n1 : MtTrpRS: -2.259%; Pks13 thioesterase: -18.04%; CoaBC: 7.911%
* O=C(CN1CCOCC1)N1CCC2(CCCN(C3CCOCC3)C2=O)C1 (configuration not stated) : MtTrpRS: 7.833%; Pks13 thioesterase: -15.38%; CoaBC: 13.09%
* O=c1nc(SCc2ccncc2)c2c(n1CCO)CCCC2 : MtTrpRS: -0.9266%; Pks13 thioesterase: -13.71%; CoaBC: 7.036%
* CN1CC(C(=O)NCc2ccc(Br)cc2F)CC1=O (configuration not stated) : MtTrpRS: 1.836%; Pks13 thioesterase: -3.44%; CoaBC: 3.89%
* Cc1ccc(OCC(O)CNC(=O)C2(c3ccc(F)cc3)CC2)cc1 (configuration not stated) : MtTrpRS: 2.377%; Pks13 thioesterase: 2.876%; CoaBC: -0.2439%
* CCCN1CCN(CC(O)c2ccc(OC(F)(F)F)cc2)CC1 (configuration not stated) : MtTrpRS: -1.695%; Pks13 thioesterase: -2.971%; CoaBC: -4.307%
* Cc1cc(NC(=O)CN2CCc3c(nc(C(C)C)n3C)C2)n(C)n1 : MtTrpRS: 5.047%; Pks13 thioesterase: -12.81%; CoaBC: 3.674%
* CC(=O)NCC(=O)N1CCc2c(CNc3ncccn3)cncc2C1 : MtTrpRS: 1.953%; Pks13 thioesterase: -17.63%; CoaBC: 0.9772%
* Cc1ccc(NS(=O)(=O)c2cc(C(=O)O)oc2C)c(Br)c1 : MtTrpRS: 0.8596%; Pks13 thioesterase: -1.2%; CoaBC: 4.382%
* CC(C)CNC(=O)N1CCC2(CCCO2)C1 (configuration not stated) : MtTrpRS: 0.549%; Pks13 thioesterase: -33.65%; CoaBC: 9.631%
* CCc1csc(CCNC(=O)C2CC(=O)N(C(C)C)C2)n1 (configuration not stated) : MtTrpRS: -1.574%; Pks13 thioesterase: -6.929%; CoaBC: 6.818%
* OCCOc1ccc(NCc2cccnc2)cn1 : MtTrpRS: 7.98%; Pks13 thioesterase: 23.26%; CoaBC: -3.659%
* CC(C)n1cc(C(=O)N2CCN(c3cccc(C(F)(F)F)c3)CC2)cn1 : MtTrpRS: -0.9662%; Pks13 thioesterase: -20.78%; CoaBC: 5.844%
* COCCN(C/C=C/c1ccccc1)Cc1[nH]cnc1C : MtTrpRS: 4.198%; Pks13 thioesterase: -41.3%; CoaBC: 18.79%
* Oc1nc(N2CCOCC2)nc2c1CCN(Cc1cccc(F)c1)CC2 : Pks13 thioesterase: -4.037%; CoaBC: 2.663%
* CCOCCN1C[C@H](c2cccc(OC)c2)[C@@H](N)C1 : MtTrpRS: -1.92%; CoaBC: -13.87%
* COc1ccc(CN2C[C@H]3C[C@H](C(=O)Nc4cccnc4)[C@@H](C2)O3)cc1 : MtTrpRS: -7.506%; Pks13 thioesterase: -2.868%; CoaBC: -2.5%
* CCC1CCCN(C(=O)Cc2csc(-c3ncccn3)n2)C1 (configuration not stated) : MtTrpRS: 2.201%; Pks13 thioesterase: -30.24%; CoaBC: -0.5319%
* Nc1cnc(-c2cccc3c2CCNC3)cn1 : MtTrpRS: -1.143%; Pks13 thioesterase: -30.65%; CoaBC: 8.468%